# In PubChem BioAssay AID2517 (National Center for Advancing Translational Sciences (NCATS), 2010):
# Amino acid sequences for entries named in this document (tags omitted).
# UniProt P27695, whole entry, looked up: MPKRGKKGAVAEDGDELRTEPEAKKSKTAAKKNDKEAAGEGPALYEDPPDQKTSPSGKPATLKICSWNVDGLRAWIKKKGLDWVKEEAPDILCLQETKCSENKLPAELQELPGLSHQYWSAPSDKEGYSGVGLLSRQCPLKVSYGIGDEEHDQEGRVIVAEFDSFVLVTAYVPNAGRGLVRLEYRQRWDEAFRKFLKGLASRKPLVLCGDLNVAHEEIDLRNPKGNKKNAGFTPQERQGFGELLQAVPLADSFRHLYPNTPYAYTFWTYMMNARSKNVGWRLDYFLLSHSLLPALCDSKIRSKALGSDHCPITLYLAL
# Where “and” joins values, the source holds several entries; their conditions need not be identical. Equal entries are not always repeated. Hit rate of the full screen: of about 350,000 compounds, about 1,200 (0.34%) were called active. The inconclusive results got no clear call from the source; some entries with a clear call stand among them for comparison. Calls come from the whole dose curve; as a rule, active = well fitted inhibition curve with a large enough effect; inconclusive = small, poorly fitted or top-dose-only effect; inactive = no such curve, though single readings can be large or run the other way. Potencies beside an inconclusive call are fits to weak or partial responses and may not hold up.
# Target: DNA repair nuclease/redox regulator APEX1 (Homo sapiens) (UniProt P27695)
# Experiment: qHTS Assay for Inhibitors of the Human Apurinic/apyrimidinic Endonuclease 1 (APE1); note: nearly all actives have a fitted effect of over 55% in size;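 for activity change, negative = inhibition: plate controls were vehicle for no effect and reference inhibitor for full effect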
# Details: recombinant APE1, TAMRA/BHQ-2 abasic DNA cleavage fluorescence; activity change, negative = inhibition: at 65.8 µM (top of the series)
# Procedure, shortened: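 Step 1: APE1 (0.75 nM) with compound, 15 min RT. Step 2: add 50 nM fluorophore/quencher THF duplex. Step 3: three fluorescence reads 60 s apart (525/598 nm); read 3 minus read 1 = reaction progress.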
# Potency is the fitted concentration of half-maximal effect.
SMILES,Potency,"activity change, negative = inhibition"
Cc1oc(C(=O)O)cc1COc1ccc2c(C)cc(=O)oc2c1,"inconclusive: 39.8 µM [inhibitor, single point]",
CCOC(=O)c1sc(NC(C)=O)nc1C,,inactive: -2.55%
O=C(CN1C(=O)c2ccccc2C1=O)NCCc1c[nH]c2ccccc12,"inconclusive: 44.7 µM [inhibitor, single point]",
Cc1ccc(-n2ncc3c(NCCCN4CCOCC4)ncnc32)c(C)c1,"inconclusive: 31.6 µM [inhibitor, single point]",
COc1ccc([N+](=O)[O-])cc1NC(=O)C(C)N(C)Cc1ccc(Br)cc1 (stereo unspecified),"inconclusive: 28.2 µM [inhibitor, partial curve]",
C=C(C)c1cccc(C(C)(C)NC(=O)N2CCN(c3ccccc3)CC2)c1,"inconclusive: 7.08 µM [inhibitor, single point]",
S=c1[nH]nc(COc2ccccc2)n1/N=C/C=C/c1ccco1,"inconclusive: 31.6 µM [inhibitor, single point]",
C=CCC[C@H](Cc1ccc(F)cc1)C(=O)OC[C@H](C)NC(=O)[C@H](CC=C)CC(=O)NCCO,"inconclusive: 13.4 µM [inhibitor, partial curve]",
COc1ccc(-c2nc3cnccn3c2Nc2ccc(C)cc2)cc1,"inconclusive: 39.8 µM [inhibitor, single point]",
CN=c1scc(-c2ccco2)n1/N=C/c1ccc(O)c(O)c1,"inconclusive: 10 µM [inhibitor, partial curve]",
Cc1ccc(CS(=O)Cc2ccc(C(=O)NCc3ccc4c(c3)OCO4)o2)cc1 (stereo unspecified),,inactive: 28.6%
COc1ccc(C)cc1Nc1ccc(C(=O)O)cc1[N+](=O)[O-],"inconclusive: 39.8 µM [inhibitor, single point]",
O=C(c1ccc(CS(=O)(=O)c2ccc(Br)cc2)o1)N1CCCC1,"inconclusive: 8.91 µM [inhibitor, full curve, poor fit]",
O=S(Cc1ccc(Br)cc1)Cc1nnc(SCc2c(Cl)cccc2Cl)n1-c1ccccc1 (stereo unspecified),"inconclusive: 20 µM [inhibitor, single point]",
CC[C@H](C)NC(=O)c1ccc(Cn2c(=S)[nH]c3c([nH]c4ccc(OC)cc43)c2=O)cc1,,inactive: 5.77%
COc1cccc2c1OC[C@@H](CO)[C@H]2N(C)C(=O)Nc1ccc(Cl)cc1,"inconclusive: 631 µM [inhibitor, partial curve]",
O=C(CCC(=O)c1ccc(Oc2ccccc2)cc1)Nc1ccc(Cl)cc1Cl,"inconclusive: 5.01 µM [inhibitor, single point]",
Cc1ccc(S(=O)(=O)Nc2ccc(O)c3ccccc23)c(C)c1,,inactive: -19.7%
COC(=O)C/C(N)=C(\C#N)C(=O)OC,"inconclusive: 3.16 µM [inhibitor, single point]",
CC(=O)c1ccc(NC(=O)c2noc3c2CCC3)cc1,"inconclusive: 25.1 µM [inhibitor, partial curve]",
C/C(=N\NC(=O)COc1ccccc1-c1ccccc1)c1cccnc1,"inconclusive: 39.8 µM [inhibitor, single point]",
CSc1nsc(SCc2ccc(F)cc2)n1,inconclusive: 0.0002 µM [inhibitor],

SMILES,Potency,"activity change, negative = inhibition"
Nc1nc(CSc2nnc(-c3cccc(F)c3)n2-c2ccccc2)nc(N2CCOCC2)n1,"inconclusive: 0.891 µM [inhibitor, full curve, poor fit]",
C#CCN1C(=O)S/C(=C/C=C/c2ccc(N(C)C)cc2)C1=O,"inconclusive: 0.708 µM [inhibitor, partial curve, poor fit]",
Cc1noc(C)c1COC(=O)c1ccc(S(=O)(=O)NCc2ccco2)cc1,"inconclusive: 20 µM [inhibitor, single point]",
CCc1oc(C(=O)O)cc1COC,"inconclusive: 39.8 µM [inhibitor, single point]",
Cn1c(SCC(=O)c2cc(Cl)c(Cl)s2)nnc1-c1ccco1,,inactive: 1.55%
CCn1c(SCC(=O)Nc2nccs2)nnc1-c1ccccc1,,inactive: 0.58%
CSc1nnnn1-c1ccc(C(=O)O)cc1,"inconclusive: 4.47 µM [inhibitor, single point]",
Cc1ccc(/C=N/Nc2nc(C(C)(C)C)cs2)o1,,inactive: -5.54%
Cc1cccc(-n2cc(CN3CCN(C(=O)c4ncn[nH]4)CC3)c(-c3cccc(F)c3)n2)c1,"inconclusive: 44.7 µM [inhibitor, single point]",
COc1ccc(Oc2ccc(S(=O)(=O)N3CCCCC3)cc2S(=O)(=O)N2CCCCC2)cc1,"inconclusive: 3.98 µM [inhibitor, single point]",
C=CCOC(=O)C(C(C)=O)C(NC(=O)OC)c1ccccc1 (stereo unspecified),"inconclusive: 7.94 µM [inhibitor, single point]",
CC(C)C(=O)NC(=S)Nc1ccccc1C(F)(F)F,"inconclusive: 1 µM [inhibitor, full curve, poor fit]",
CC(C)CN(C(=O)c1cc(Cl)nc2ccccc12)c1c(N)n(Cc2ccccc2)c(=O)[nH]c1=O,,inactive: 44.2%
O=C1CCCN1CCCNc1ccc2nnc(CCC(=O)N3CCN(c4ccccc4)CC3)n2n1,,inactive: 35.1%
CCOC(=O)c1ccc(Cl)c(NC(=O)c2ccc(-c3ccccc3)cc2)c1,,inactive: -4.77%
Cc1[nH]c2ccc(F)cc2c1CCN(Cc1ccco1)C(=S)NC(C)(C)C,"inconclusive: 0.0447 µM [inhibitor, full curve]",
CC1CN(C(=O)c2ccccc2Nc2ccc(SC(F)F)cc2)CC(C)O1 (stereo unspecified),"inconclusive: 35.5 µM [inhibitor, partial curve, poor fit]",
Cc1cccc(NC(=O)CSc2nnc(-c3ccco3)c(-c3ccco3)n2)c1,"inconclusive: 22.4 µM [inhibitor, single point]",
O=S(=O)(Nc1nc2ccccc2nc1Nc1ccc(N2CCOCC2)cc1)c1cc(Cl)ccc1Cl,,inactive: -4.1%
CCC(C)NC(=O)c1c(-c2cc(Cl)c(OC)c(Cl)c2)noc1C (stereo unspecified),"inconclusive: 3.55 µM [inhibitor, partial curve, poor fit]",
C/C(=N\NC(N)=O)c1cc(Cl)cc(Cl)c1O,"inconclusive: 0.01 µM [inhibitor, full curve, poor fit]",
O=c1c(O)c(-c2ccc(O)c(O)c2)oc2cc(O)ccc12,"inconclusive: 891 nM [inhibitor, full curve] and inconclusive: 28.2 µM [inhibitor, partial curve]",

SMILES,Potency,"activity change, negative = inhibition"
O=C(NC1(O)C(=O)c2ccccc2C1=O)c1ccc(C(F)(F)F)cc1,,inactive: 0.293%
CCOC(CNC(=O)C(=O)NCC(c1ccco1)N1CCN(c2ccc(OC)cc2)CC1)OCC (stereo unspecified),"inconclusive: 4.74 µM [inhibitor, single point]",
CCN(CC)C(=O)C(=O)c1cn(CC(=O)N2CCc3ccccc3C2)c2ccccc12,"inconclusive: 10 µM [inhibitor, partial curve]",
CCN(CC)Cc1cc(C(C)=O)ccc1O,"inconclusive: 1 µM [inhibitor, full curve]",
CCC(C)n1c(-c2cccc(S(=O)(=O)N(CC)CC)c2)n[nH]c1=S (stereo unspecified),"inconclusive: 39.8 µM [inhibitor, single point]",
O=C(NC(=S)Nc1ccccc1N1CCCC1)c1cccs1,"inconclusive: 3.98 µM [inhibitor, single point]",
COCCn1c(SCc2nc(N)nc(Nc3ccccc3C)n2)nc2ccccc2c1=O,"inconclusive: 3.55 µM [inhibitor, partial curve, poor fit]",
COc1ccc(C(=O)Nc2cc(C)nn2-c2nc3ccccc3[nH]2)c(OC)c1,"inconclusive: 0.0251 µM [inhibitor, full curve, poor fit]",
Cc1cccc(Cn2cnc3c(cnn3C(C)(C)C)c2=O)c1,,inactive: -3.64%
Cc1ccc(S(=O)(=O)CC(=O)c2ccccc2[N+](=O)[O-])cc1,"inconclusive: 5.97 µM [inhibitor, single point]",
COc1ccc(/C=C2\C(=O)NC(=S)N2C(=O)c2ccc(F)cc2)cc1,"inconclusive: 25.1 µM [inhibitor, single point]",
CCOC(=O)C1=C(c2ccccc2)O/C(=C(/C(=O)OC)C(F)(F)F)S1,"inconclusive: 0.1 µM [inhibitor, full curve, poor fit]",
CC(NC(=S)Nc1ccc(S(N)(=O)=O)cc1)c1ccc2c(c1)OCO2 (stereo unspecified),"inconclusive: 7.08 µM [inhibitor, single point]",
C=C1C(=O)[C@]23[C@H](O)[C@H]1CC[C@H]2[C@@]12COC3(O)[C@H](O)[C@@H]1C(C)(C)CC[C@@H]2O,,inactive: -10.2%
CCN(Cc1ccncc1)C(=O)c1ccccc1NS(=O)(=O)c1ccc(F)cc1,"inconclusive: 0.891 µM [inhibitor, full curve, poor fit]",
O=C(CCNS(=O)(=O)c1cccc2nonc12)NC1CCCc2ccccc21 (stereo unspecified),"inconclusive: 0.004 µM [inhibitor, full curve, poor fit]",
O=C(Nc1ccc(N2CCN(C(=O)c3ccccc3)CC2)cc1)c1ccc([N+](=O)[O-])o1,,inactive: 14.3%
CCCCCCN1C(=O)C(O)=C(C(C)=O)C1c1ccccc1[N+](=O)[O-] (stereo unspecified),"inconclusive: 17.8 µM [inhibitor, single point]",
CCN(CC)CCCn1c(C)cc2c(c1=O)C(c1cccc(Cl)c1)C(C#N)=C(N)O2 (stereo unspecified),"inconclusive: 31.6 µM [inhibitor, single point]",
Cc1cc(/C=C2/SC(=O)NC2=O)c(C)n1-c1ccc(N2CCOCC2)cc1,,inactive: -2.99%
Cc1c(C)c2c(OCC(=O)N3CCC(C(N)=O)CC3)cc3c(c2oc1=O)CCC(C)(C)O3,,inactive: 6.24%
CCN1/C(=C/c2cccc[n+]2C)Sc2ccc(OC)cc21,,inactive: 13.9%

# An excerpt from the list above, for reference:
SMILES,Potency,"activity change, negative = inhibition"
CCn1c(SCC(=O)Nc2nccs2)nnc1-c1ccccc1,,inactive: 0.58%
CSc1nnnn1-c1ccc(C(=O)O)cc1,"inconclusive: 4.47 µM [inhibitor, single point]",

# Look-ups from above.
# For activity change, negative = inhibition, Cc1cc(/C=C2/SC(=O)NC2=O)c(C)n1-c1ccc(N2CCOCC2)cc1 reads inactive: -2.99%
# For activity change, negative = inhibition, O=C(NC1(O)C(=O)c2ccccc2C1=O)c1ccc(C(F)(F)F)cc1 reads inactive: 0.293%
# For Potency, CCN(CC)CCCn1c(C)cc2c(c1=O)C(c1cccc(Cl)c1)C(C#N)=C(N)O2 (stereo unspecified) reads inconclusive: 31.6 µM [inhibitor, single point]
